# Some results were stated once for a whole list of compounds, not compound by compound.
# Test system: E. coli K-12 MG1655 (DA4201)
# Experiment: AgSol-antibiotic synergy screening assay / MIC (Ag/Antibiotic screen)
# Format: cell-based, Escherichia coli
# Description: The MIC (Minimal Inhibitory Concentration) of a bacterium to a certain antimicrobial agent gives a quantitative estimate of the susceptibility. MIC is defined as the lowest concentration of antimicrobial agent required to inhibit growth of the organism. The principle is simple: Agar plates, tubes or microtitre trays with two-fold dilutions of antibiotics are inoculated with a standardized inoculum of the bacteria and incubated under standardized conditions following NCCLS guidelines. The next day, the MIC is recorded as the lowest concentration of antimicrobial agent with no visible growth. The MIC informs you about the degree of resistance and might give you important information about the resistance mechanism and the resistance genes involved. […]
# The Minimum Inhibitory Concentration (MIC) of nanosilver (silver) was determined by two-fold dilution series in NaCl free Nutrient Broth (Sigma-Aldrich) in 15 ml screw cap tubes. […] The MIC was determined as the lowest concentration of nanosilver (silver) at which no visible growth was observed. […]
# The prepared plate was incubated in 37° C. incubator without shaking in the dark for 16-20 h and the optical density (OD620) of each well was measured in plate reader Multiscan FC (Thermo Fisher).
Compound,"fold increase in effect with AgSol vs antibiotic alone (Table 6, listed as Gentamycin)",fold increase in effect with AgSol vs antibiotic alone (Table 6)
Gentamicin,15-17 fold,
NC[C@H]1O[C@H](O[C@H]2[C@H](O)[C@@H](O[C@H]3O[C@H](CO)[C@@H](O)[C@H](N)[C@H]3O)[C@H](N)C[C@@H]2N)[C@H](N)C[C@@H]1O [Tobramycin],,15-17 fold
